Reference: US20250333534A1
Where a chain is given by its changes, count along the chain named. These are yes or no findings as the source states them, for the method shown. Some binding calls cover weakened binding; strength is not graded here. For some assays here: Tags and fused reporters may be left off the sequences shown.

T1: CD155-His tag fusion protein (purchased from Acro) (human) (UniProt P15151)
T1 sequence (looked up): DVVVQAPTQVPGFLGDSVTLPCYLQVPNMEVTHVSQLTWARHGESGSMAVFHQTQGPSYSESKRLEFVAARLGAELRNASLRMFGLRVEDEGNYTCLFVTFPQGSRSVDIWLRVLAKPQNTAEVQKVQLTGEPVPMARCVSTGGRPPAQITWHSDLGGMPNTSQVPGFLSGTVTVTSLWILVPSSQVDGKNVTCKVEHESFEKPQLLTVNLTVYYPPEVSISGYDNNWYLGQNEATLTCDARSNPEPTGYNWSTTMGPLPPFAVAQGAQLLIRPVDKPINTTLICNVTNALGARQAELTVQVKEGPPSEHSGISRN

T2: Rhesus CD155 protein (Rhesus CD155), expressed on CHO-K1 cells (Rhesus (monkey))
T2 sequence: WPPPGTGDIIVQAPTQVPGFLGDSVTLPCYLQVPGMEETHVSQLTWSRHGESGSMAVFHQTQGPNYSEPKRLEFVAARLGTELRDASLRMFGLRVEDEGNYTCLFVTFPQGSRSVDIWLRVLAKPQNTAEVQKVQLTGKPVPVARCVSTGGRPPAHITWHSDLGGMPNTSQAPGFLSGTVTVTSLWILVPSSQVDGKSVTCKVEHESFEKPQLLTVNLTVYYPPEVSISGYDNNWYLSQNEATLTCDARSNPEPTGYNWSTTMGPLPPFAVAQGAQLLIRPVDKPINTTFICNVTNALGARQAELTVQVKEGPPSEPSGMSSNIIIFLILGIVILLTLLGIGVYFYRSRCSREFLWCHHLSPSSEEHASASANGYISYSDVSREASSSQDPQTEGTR

B1: affinity-matured humanized antibody V20 (tgi1005 V20-hIgG1/4/1LALA) (antibody, V domains shown)
VH: QVQLVQSGAEVKKPGASVKVSCKASGYTFTSSYISWVRQAPGQGLEWIAWIYAGTGDTNYNQKFTGRVTMTTDTSTSTAYMELRSLRSDDTAVYYCARHGYTGRGWYFAVWGQGTTVTVSS
VL: QAVVTQEPSLTVSPGGTVTLTCRSSTGAVTTSNLANWVQQKPGQAFRGLIGHTNNRAPGVPARFSGSLLGDKAALTLSGAQPEDEAEYYCALWYSNKFVFGGGTKLTVL
B2: affinity-matured humanized antibody V21 (tgi1005 V21-hIgG1/4) (antibody, V domains shown)
VH: B1 VH
VL: B1 VL with L34Y, H52G, A91I, K97H
B3: affinity-matured humanized antibody V28 (tgi1005 V28-hIgG1/4/1LALA) (antibody, V domains shown)
VH: B1 VH with Y101L, G105H
VL: B1 VL with L34I, H52G, A57G, A91I
B4: affinity-matured humanized antibody V40 (tgi1005 V40-hIgG1/4) (antibody, V domains shown)
VH: B1 VH with Y101M
VL: B1 VL with A91I
B5: humanized antibody V0 (tgi1005 V0-hIgG1/4) (antibody, V domains shown)
VH: B1 VH with Y101S
VL: B1 VL with L34Y, H52G, K97H
B6: murine CD155 antibody (mutgi1005) (antibody, mouse IgG2a)
heavy: QVQMQQSGAELVKPGASVKLSCKTSGFTFSSSYISWLKQKPGQSLEWIAWIYAGTGDTNYNQKFTGKAQVTVDTSSSTAYMQFSSLTTEDSAIYYCVRHGSTGRGWYFAVWGAGTTVTVSSAKTTAPSVYPLAPVCGDTTGSSVTLGCLVKGYFPEPVTLTWNSGSLSSGVHTFPAVLQSDLYTLSSSVTVTSSTWPSQSITCNVAHPASSTKVDKKIEPRGPTIKPCPPCKCPAPNLLGGPSVFIFPPKIKDVLMISLSPIVTCVVVDVSEDDPDVQISWFVNNVEVHTAQTQTHREDYNSTLRVVSALPIQHQDWMSGKEFKCKVNNKDLPAPIERTISKPKGSVRAPQVYVLPPPEEEMTKKQVTLTCMVTDFMPEDIYVEWTNNGKTELNYKNTEPVLDSDGSYFMYSKLRVEKKNWVERNSYSCSVVHEGLHNHHTTKSFSRTPGK
light: QAVVTQESALTTSPGETVTLTCRSSTGAVTTSNYANWVQEKPDHLFTGLIGGTNNRAPGVPARFSGSLIGDKAALTITGAQTEDEAIYFCALWYSNHFVFGGGTKLTVLQPKSSPSVTLFPPSSEELETNKATLVCTITDFYPGVVTVDWKVDGTPVTQGMETTQPSKQSNNKYMASSYLTLTARAWERHSSYSCQVTHEGHTVEKSLSRADCS

Target: T1, CD155-His tag fusion protein (purchased from Acro) (human)
Experiment: ELISA on coated CD155-His

binding, binds:
B1
B2
B3
B4
B5

Target: Rhesus CD155-His tag fusion protein (purchased from Acro) (Rhesus (monkey))
Experiment: ELISA on coated Rhesus CD155-His

binding, binds:
B1
B2
B3
B4

Target: T2, Rhesus CD155 protein (Rhesus CD155), expressed on CHO-K1 cells (Rhesus (monkey))
Experiment: flow cytometry on CHO-K1-Rhesus CD155 cells

binding, binds:
B1
B2
B3
B4
B6
